Results deposited as PubChem BioAssay AID1224826 (NIAID, 2016).

Purpose: 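Genes that change LPS-induced Tnf promoter activity in mouse macrophages when knocked down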 (primary screen)
System: RAW264.7 G9 macrophages from mouse bearing reporters for p65 (GFP) and the Tnf promoter (mCherry)
Reagents: siRNA pool against mouse genes, 100 nM
Time to read-out: 16 h of LPS stimulation, after 2 days of siRNA transfection
Challenge: bacterial lipopolysaccharide (Salmonella minnesota R595), 10 ng/ml
Measurement: 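Nuclear mCherry signal of the Tnf promoter reporter measured by imaging after background removal, scaled to each plate median and turned into robust z-scores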
Direction: Tnf reporter robust z-score: higher = stronger Tnf promoter reporter signal after LPS
Rule for the call: 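Called active when robust z-score is at most -1.3, matching the median of the Tlr4 knock-down control, or over 3; control wells and wells with under 50 cells never active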
Calls: active = Tnf reporter clearly lowered or raised; inactive = no clear change in Tnf reporter
The whole screen tested about 17,000 reagents; below is an unselected part. About 1,110 of all reagents (6.6%) count as active. 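Active means lowered or raised reporter signal; replicate intensities are raw and not normalised per plate.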 Entries without a mark were called inactive. Further read-outs or replicates are left out here.

Snapin | fewer than 50 cells in well = fewer than 50 cells per well; well left out of calls
Dusp23 | Tnf reporter robust z-score = -1.51 (active); fewer than 50 cells in well = enough cells in well
Dhrs3 | Tnf reporter robust z-score = 0.44; fewer than 50 cells in well = enough cells in well
Fbxl21 | Tnf reporter robust z-score = 1.89; fewer than 50 cells in well = enough cells in well
Clgn | Tnf reporter robust z-score = -0.8; fewer than 50 cells in well = enough cells in well
Prpf38a | fewer than 50 cells in well = fewer than 50 cells per well; well left out of calls
Serpinb8 | fewer than 50 cells in well = fewer than 50 cells per well; well left out of calls

3 entries from above, reformatted.
Target gene	Tnf reporter robust z-score	fewer than 50 cells in well
Dusp23	-1.51 (active)	enough cells in well
Dhrs3	0.44	enough cells in well
Fbxl21	1.89	enough cells in well

Further records follow:
Gpr149 | Tnf reporter robust z-score = 0.18; fewer than 50 cells in well = enough cells in well
Ift38 | fewer than 50 cells in well = fewer than 50 cells per well; well left out of calls
Arpc1a | Tnf reporter robust z-score = -0.62; fewer than 50 cells in well = enough cells in well
Opn1mw | Tnf reporter robust z-score = -0.61; fewer than 50 cells in well = enough cells in well
Atp5mc3 | Tnf reporter robust z-score = 0.25; fewer than 50 cells in well = enough cells in well
Vmn2r29 | Tnf reporter robust z-score = 1.55; fewer than 50 cells in well = enough cells in well
Adgrv1 | Tnf reporter robust z-score = 0.49; fewer than 50 cells in well = enough cells in well
Or4a2 | Tnf reporter robust z-score = -0.26; fewer than 50 cells in well = enough cells in well
Sde2 | Tnf reporter robust z-score = -0.99; fewer than 50 cells in well = enough cells in well
Hmgn2 | Tnf reporter robust z-score = -0.17; fewer than 50 cells in well = enough cells in well
Ift80 | Tnf reporter robust z-score = 0.42; fewer than 50 cells in well = enough cells in well
Snapc5 | Tnf reporter robust z-score = 1.85; fewer than 50 cells in well = enough cells in well
Phf13 | Tnf reporter robust z-score = -0.26; fewer than 50 cells in well = enough cells in well
Ttc39b | Tnf reporter robust z-score = 0.36; fewer than 50 cells in well = enough cells in well
